From paper PMC12050090

Protein sequences, listed by entry. Tags and fused reporters are not part of them.
UniProt P23258: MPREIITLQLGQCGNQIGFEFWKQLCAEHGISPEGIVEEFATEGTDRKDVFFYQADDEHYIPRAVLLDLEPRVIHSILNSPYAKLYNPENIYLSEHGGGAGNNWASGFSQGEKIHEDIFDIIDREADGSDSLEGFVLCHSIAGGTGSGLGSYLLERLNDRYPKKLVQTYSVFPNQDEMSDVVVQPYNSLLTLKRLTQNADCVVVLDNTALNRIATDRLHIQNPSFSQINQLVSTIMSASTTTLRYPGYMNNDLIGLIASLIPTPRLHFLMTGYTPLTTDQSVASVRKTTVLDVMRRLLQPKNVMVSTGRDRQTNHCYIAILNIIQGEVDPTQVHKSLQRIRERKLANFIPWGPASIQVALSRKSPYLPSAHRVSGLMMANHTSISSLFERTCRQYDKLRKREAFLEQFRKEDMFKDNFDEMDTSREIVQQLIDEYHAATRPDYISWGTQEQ
UniProt P78527: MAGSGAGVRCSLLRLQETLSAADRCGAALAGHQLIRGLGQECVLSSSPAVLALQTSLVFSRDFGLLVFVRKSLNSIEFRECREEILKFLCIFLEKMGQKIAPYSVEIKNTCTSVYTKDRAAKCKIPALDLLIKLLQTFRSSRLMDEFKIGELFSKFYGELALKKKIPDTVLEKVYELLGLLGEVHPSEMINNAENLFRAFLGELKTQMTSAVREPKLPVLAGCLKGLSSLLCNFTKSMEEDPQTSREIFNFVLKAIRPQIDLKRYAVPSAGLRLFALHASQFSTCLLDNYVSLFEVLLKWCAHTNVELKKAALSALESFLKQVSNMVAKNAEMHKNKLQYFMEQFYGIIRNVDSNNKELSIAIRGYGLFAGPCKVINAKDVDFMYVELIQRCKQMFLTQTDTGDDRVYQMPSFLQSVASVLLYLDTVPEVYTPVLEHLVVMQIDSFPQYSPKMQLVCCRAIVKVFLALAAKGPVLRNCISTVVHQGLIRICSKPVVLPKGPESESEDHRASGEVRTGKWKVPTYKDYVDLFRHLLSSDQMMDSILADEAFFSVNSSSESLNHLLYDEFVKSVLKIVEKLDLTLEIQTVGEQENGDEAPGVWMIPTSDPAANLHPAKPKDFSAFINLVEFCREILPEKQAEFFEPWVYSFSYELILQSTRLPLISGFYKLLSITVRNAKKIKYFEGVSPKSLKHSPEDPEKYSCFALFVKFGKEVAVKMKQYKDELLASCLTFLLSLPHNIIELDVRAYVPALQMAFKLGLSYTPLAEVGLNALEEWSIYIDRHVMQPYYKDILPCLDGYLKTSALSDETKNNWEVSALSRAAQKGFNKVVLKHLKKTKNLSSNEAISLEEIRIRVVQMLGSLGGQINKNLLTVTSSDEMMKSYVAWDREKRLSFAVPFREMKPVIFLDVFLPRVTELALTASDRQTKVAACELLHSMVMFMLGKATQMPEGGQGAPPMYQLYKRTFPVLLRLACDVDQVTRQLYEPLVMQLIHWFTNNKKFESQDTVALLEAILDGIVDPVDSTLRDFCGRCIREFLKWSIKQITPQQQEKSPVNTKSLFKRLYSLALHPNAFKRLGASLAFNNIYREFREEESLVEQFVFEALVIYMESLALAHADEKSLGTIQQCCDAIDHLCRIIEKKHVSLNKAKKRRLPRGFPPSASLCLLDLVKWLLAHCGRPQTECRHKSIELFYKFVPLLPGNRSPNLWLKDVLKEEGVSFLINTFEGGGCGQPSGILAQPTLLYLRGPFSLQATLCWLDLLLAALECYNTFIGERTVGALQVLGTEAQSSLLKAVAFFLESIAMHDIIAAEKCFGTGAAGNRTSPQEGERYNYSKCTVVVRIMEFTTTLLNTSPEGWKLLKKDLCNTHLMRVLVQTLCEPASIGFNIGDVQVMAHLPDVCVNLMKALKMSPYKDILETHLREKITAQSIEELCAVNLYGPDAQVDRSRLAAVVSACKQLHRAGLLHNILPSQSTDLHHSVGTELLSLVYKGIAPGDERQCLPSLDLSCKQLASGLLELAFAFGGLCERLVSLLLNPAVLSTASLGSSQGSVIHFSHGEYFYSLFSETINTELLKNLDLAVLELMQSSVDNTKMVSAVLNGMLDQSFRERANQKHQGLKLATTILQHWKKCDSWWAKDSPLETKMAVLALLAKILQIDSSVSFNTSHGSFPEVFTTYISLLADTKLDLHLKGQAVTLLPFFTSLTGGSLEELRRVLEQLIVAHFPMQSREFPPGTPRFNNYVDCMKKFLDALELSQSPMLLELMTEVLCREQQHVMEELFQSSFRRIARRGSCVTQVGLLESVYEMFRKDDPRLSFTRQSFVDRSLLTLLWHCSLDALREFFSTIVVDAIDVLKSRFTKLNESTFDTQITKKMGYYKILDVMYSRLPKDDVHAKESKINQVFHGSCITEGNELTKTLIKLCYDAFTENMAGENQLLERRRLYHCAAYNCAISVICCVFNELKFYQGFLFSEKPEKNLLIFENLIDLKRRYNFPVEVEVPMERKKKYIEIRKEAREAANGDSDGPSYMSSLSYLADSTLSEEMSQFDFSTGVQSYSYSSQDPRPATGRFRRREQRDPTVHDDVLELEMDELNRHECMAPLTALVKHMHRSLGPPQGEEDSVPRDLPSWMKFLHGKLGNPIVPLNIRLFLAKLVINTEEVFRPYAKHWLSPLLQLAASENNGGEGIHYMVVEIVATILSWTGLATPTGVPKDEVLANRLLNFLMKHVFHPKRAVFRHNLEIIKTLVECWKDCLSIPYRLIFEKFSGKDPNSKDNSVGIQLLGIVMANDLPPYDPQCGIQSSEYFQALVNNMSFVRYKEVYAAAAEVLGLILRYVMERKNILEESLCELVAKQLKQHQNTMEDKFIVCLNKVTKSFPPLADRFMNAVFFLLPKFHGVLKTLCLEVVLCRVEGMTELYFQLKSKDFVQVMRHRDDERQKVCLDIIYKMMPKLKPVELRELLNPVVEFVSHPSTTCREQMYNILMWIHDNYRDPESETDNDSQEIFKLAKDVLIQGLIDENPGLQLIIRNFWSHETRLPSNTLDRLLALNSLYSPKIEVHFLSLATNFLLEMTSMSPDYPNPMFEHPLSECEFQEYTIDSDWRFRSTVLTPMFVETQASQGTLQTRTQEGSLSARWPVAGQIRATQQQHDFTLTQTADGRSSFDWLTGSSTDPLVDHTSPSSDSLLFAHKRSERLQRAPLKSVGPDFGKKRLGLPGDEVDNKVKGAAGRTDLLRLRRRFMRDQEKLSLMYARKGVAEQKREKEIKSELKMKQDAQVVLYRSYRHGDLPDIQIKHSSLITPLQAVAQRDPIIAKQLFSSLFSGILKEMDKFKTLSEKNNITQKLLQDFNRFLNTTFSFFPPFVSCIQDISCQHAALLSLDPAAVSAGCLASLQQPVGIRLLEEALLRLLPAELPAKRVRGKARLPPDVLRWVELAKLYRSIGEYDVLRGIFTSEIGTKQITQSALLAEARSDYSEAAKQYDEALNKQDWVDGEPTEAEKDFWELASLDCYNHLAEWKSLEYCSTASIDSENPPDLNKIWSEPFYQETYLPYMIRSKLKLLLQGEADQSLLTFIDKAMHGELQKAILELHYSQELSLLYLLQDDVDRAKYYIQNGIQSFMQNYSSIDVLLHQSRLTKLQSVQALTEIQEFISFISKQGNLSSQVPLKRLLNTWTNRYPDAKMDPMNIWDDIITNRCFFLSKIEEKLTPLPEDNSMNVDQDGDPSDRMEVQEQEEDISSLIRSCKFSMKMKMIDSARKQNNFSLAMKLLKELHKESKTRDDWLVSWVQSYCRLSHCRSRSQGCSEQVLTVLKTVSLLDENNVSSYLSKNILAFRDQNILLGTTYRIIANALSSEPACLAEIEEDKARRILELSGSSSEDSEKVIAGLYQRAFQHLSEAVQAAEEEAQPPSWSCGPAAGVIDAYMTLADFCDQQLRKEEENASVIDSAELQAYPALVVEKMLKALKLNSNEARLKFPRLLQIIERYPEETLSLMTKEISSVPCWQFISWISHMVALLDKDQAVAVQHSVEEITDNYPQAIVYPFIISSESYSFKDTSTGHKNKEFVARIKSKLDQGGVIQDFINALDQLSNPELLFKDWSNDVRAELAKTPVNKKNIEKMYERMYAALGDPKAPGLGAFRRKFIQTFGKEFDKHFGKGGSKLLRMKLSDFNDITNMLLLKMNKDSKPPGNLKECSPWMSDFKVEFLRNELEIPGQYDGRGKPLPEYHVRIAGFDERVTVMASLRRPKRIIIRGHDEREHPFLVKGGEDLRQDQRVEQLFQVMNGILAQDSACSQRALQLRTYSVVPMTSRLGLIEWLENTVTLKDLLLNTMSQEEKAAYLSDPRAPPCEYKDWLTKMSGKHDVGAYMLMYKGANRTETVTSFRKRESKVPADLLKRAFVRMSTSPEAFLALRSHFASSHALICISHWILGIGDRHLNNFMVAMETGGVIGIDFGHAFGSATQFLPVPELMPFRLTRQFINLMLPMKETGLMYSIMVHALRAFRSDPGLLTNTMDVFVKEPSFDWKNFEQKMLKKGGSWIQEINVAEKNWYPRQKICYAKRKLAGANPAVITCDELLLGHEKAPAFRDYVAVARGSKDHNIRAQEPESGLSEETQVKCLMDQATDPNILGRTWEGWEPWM
UniProt P09874: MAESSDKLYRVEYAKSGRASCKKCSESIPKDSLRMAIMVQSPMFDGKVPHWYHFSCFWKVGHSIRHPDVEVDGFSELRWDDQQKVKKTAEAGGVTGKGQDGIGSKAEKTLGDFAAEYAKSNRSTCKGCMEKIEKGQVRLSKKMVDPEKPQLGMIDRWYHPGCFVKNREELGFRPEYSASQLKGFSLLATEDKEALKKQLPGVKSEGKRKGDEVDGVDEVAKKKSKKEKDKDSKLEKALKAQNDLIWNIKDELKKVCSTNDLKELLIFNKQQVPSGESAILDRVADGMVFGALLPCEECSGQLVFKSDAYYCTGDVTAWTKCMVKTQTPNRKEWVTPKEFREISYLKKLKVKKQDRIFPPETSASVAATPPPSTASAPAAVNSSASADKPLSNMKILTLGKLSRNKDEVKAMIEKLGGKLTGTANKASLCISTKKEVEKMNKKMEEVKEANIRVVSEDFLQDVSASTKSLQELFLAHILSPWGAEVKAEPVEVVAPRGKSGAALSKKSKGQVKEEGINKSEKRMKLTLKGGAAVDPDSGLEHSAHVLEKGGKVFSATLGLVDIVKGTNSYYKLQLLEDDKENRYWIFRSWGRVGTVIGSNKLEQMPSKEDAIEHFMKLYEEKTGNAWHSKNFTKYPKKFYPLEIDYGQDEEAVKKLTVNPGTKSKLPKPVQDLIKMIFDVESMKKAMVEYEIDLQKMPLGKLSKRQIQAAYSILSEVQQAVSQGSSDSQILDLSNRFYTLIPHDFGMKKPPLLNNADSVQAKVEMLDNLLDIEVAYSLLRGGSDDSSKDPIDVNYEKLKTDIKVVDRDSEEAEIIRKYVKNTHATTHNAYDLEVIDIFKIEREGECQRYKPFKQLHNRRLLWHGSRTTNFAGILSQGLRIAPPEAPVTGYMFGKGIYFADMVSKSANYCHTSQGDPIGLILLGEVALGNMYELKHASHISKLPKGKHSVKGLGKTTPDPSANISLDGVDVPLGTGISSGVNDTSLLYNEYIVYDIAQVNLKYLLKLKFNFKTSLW

Biological target: γ-tubulin (human (endogenous in HeLa)) (UniProt P23258)
Assay: affinity purification with mass spectrometry; anti-γ-tubulin antibody on magnetic beads incubated with HeLa cell lysates, cells untreated or treated with bleomycin (20 µM, 3 h); washed three times with PBS; control with blank beads; proteomic analysis

Row | binding | Substance
1 | binds | catalytic subunit (DNA-PKcs) of the DNA-dependent protein kinase complex (from UniProt P78527 1-4128)
2 | binds | poly-ADP-ribose polymerase 1 (from UniProt P09874 1-1014)

No constants are given. Whether binding was seen depends on the method and setting. Binding seen in cells or lysates may run through a third protein. These calls come from enrichment with a bait or labelling near it, and not all partners need be listed.
